According to PMC7176872:
No constants are given. Whether binding was seen depends on the method and setting. In cells and extracts the contact can be indirect. Some binding calls cover weakened binding; strength is not graded here.

The chains behind the UniProt entries cited, without tags or fusion partners.
UniProt P33242: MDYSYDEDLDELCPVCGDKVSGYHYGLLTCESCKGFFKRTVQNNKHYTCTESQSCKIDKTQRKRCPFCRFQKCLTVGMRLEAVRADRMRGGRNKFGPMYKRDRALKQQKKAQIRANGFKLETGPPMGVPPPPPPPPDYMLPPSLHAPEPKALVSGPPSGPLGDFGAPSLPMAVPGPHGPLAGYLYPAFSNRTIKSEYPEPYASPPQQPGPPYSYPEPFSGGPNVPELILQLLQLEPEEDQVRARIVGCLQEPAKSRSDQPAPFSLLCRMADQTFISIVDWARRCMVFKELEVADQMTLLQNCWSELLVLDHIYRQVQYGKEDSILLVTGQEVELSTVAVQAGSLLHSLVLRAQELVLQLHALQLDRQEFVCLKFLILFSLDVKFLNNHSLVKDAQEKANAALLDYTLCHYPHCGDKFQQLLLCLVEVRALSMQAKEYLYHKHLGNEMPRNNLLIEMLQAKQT

Target: Steroidogenic factor-1 (UniProt P33242)
Assay: co-IP; immunoprecipitation; cells, bait, antibodies and buffer not told

- binding: binds
B1: B-box and SPRY Domain Containing Protein (protein, UniProt Q80YW5 1-473)
chain: MSADVSGTESGSESGPEPEPGPEPGPESRPESRPKPGPGPEPRPESGPEPGPRSGLRRGPKQGSERSQLCPEHFEPLSWFCLSERRPVCATCAGFGGRCHRHRIRRAEEHAEELRNKIVDQCERLQLQSAGISKYMAEVLQGKNQKAVVMASAARDLIIQRLSLVRSLCESEEQRLLEQVHGEEERAHQSILTQRAHWVDAVQKLDTLRTNMVDMITHLDDLQLIQREQEIFERAEEAEGILDPQDSEKLSFNEKCAWSPLLTQLWAASVLGSLSGVEEVLIDERTVSPLLHLSEDRRTLTFIAKKSKVCSDEPERFDHWPNALAATAFQTGLHAWIVNVKHSCAYKVGVASDQLPRKGSGNDCRLGHNAFSWVFSRYDQEFCFSHNGYHEPLPLLRCPAQLGMLLDLQAGELVFYEPASGTVLHIHRASFPQVLFPVFAVADQLISIVRGPLATVRLDSPPHHPCRSGHASR
